Reference: PubChem BioAssay AID1347076 (National Center for Advancing Translational Sciences (NCATS), 2019)
The whole screen tested about 400,000 compounds, of which about 13,000 (3.2%) were called active. The inconclusive results got no clear call from the source; some entries with a clear call stand among them for comparison. Calls come from the whole dose curve; as a rule, active = well fitted cell-killing curve with a large enough effect; inconclusive = small, poorly fitted or top-dose-only effect, or effect the other way; inactive = flat fitted curve, though single readings scatter. Where the call is inconclusive, the potency comes from a doubtful curve fit. Some compounds were tested as several samples or in several runs, with calls that do not always agree.

assay: qHTS assay for MDR1-selective chemotherapeutics: Primary screen using the drug-selected MDR subline cells KB-V1; details: KB-V1 MDR cells viability, CellTiter-Glo, 72 h; series mostly up to 46.1 µM; note: nearly all actives have a fitted effect of over 60% in size
Outline: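 Cells of the MDR subline KB-V1 are plated, dosed with compound at multiple concentrations, and incubated 72 h at 37 degrees C; CellTiter-Glo is then added and luminescence read after 10 min.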
Potency is the fitted concentration of half-maximal effect.

Structure (SMILES) | Potency
COc1ccc(/C=C2\C(=O)c3ccccc3OC2c2ccccc2)cc1 (configuration not stated) | active: 7.31 µM
O=C(COc1cccc(NC(=O)c2ccccc2)c1)c1ccccc1 | inactive
CCC(C)n1ncn(-c2ccc(N3CCN(c4ccc(O)cc4)CC3)cc2)c1=O (configuration not stated) | inactive
Cc1ccc(C)c(S(=O)(=O)N2CCCCC2CCNC(=O)C(=O)NCc2ccco2)c1 (configuration not stated) | active: 9.2 µM
CSc1ccc(CNC(=O)CCn2ccc3cc(S(=O)(=O)N4CCCC4)ccc32)cc1 | inconclusive: 18.4 µM [cytotoxic, partial curve]
Cc1cccc(C)c1N(CC(=O)N1CCOCC1)S(C)(=O)=O | inconclusive: 29.1 µM [rising, single point]
Cc1[nH]nc(N=CC2=C(O)CC(c3ccco3)CC2=O)c1-c1ccccc1 (configuration not stated) | active: 16.4 µM
COc1ccccc1CNC(=O)c1ccc(C)c(-n2cnc3cccnc32)c1 | inactive
COc1cccc(NC(=O)c2cccc(C(=O)Nc3cccc(OC)c3)c2)c1 | inactive
COc1ccc(NC(=O)CC2SC(N3CCOCC3)=NC2=O)cc1OC (configuration not stated) | inconclusive: 5.17 µM [rising, full curve]
O=C(NCCc1csc(-c2cccnc2)n1)c1cccc(C(F)(F)F)c1 | active: 9.2 µM
CC1(C(=O)NCc2cccnc2)CCN1C(=O)Cc1cccs1 (configuration not stated) | inactive
COc1cc(Cn2c(-c3ccc(O)c(OC)c3)nc3ccccc32)ccc1O | inconclusive: 29.1 µM [cytotoxic, single point]
O=C(NC1CCCC1)C1C(c2ccc(C(F)(F)F)cc2)=Nc2ccccc2N1C(=O)c1ccco1 (configuration not stated) | inconclusive: 8.2 µM [cytotoxic, partial curve]
Cc1ccc(NS(=O)(=O)c2cccc(C(=O)Nc3cc(C)on3)c2)cc1 | active: 4.61 µM
COC(=O)c1ccc(C(=O)OC)c(NC(=S)N2CCN(c3cc(Cl)ccc3C)CC2)c1 | active: 20.6 µM
CCCS(=O)(=O)NC(=O)C1(C)CCCN(C(=O)c2ccc3ccccc3c2)C1 (configuration not stated) | inactive
O=Cc1cccn1-c1cccnc1 | inconclusive: 29.1 µM [rising, single point]
CCc1nc(SCC(=O)N2c3ccccc3CC2C)c2c(C)c(C)sc2n1 (configuration not stated) | inactive
Nc1nc(N)nc(-c2cc(C(F)(F)F)ccc2Cl)n1 | inconclusive: 16.4 µM [rising, partial curve, poor fit]
COc1cccc(NC(=O)Cn2c(=O)n(-c3ccc(CC(=O)NCC4CCCO4)cc3)c(=O)c3ccccc32)c1 (configuration not stated) | inconclusive: 29.1 µM [rising, single point]
CCOC(=O)C(=O)N1CCC(C(=O)OC)CC1 | inactive

Looked up above.
Under Potency, `Cc1ccc(C)c(S(=O)(=O)N2CCCCC2CCNC(=O)C(=O)NCc2ccco2)c1` (configuration not stated) reads active: 9.2 µM
Under Potency, `Nc1nc(N)nc(-c2cc(C(F)(F)F)ccc2Cl)n1` reads inconclusive: 16.4 µM [rising, partial curve, poor fit]
